Measurements published in PubChem BioAssay AID1347076 (National Center for Advancing Translational Sciences (NCATS), 2019).
Where “and” joins values, the source holds several entries; their conditions need not be identical. Identical values can stand only once. Hit rate of the full screen: of about 400,000 compounds, about 13,000 (3.2%) were called active. Inconclusive means that the source gave no clear call. Such entries were picked first, then a sample of the others. Calls come from the whole dose curve; as a rule, active = well fitted cell-killing curve with a large enough effect; inconclusive = small, poorly fitted or top-dose-only effect, or effect the other way; inactive = flat fitted curve, though single readings scatter. Potencies beside an inconclusive call are fits to weak or partial responses and may not hold up.
% is set by controls: 0 for no effect and ±100 for the full control effect; potency is the fitted concentration of half-maximal effect.

Test: qHTS assay for MDR1-selective chemotherapeutics: Primary screen using the drug-selected MDR subline cells KB-V1; note: nearly all actives have a fitted effect of over 60% in size
Conditions: KB-V1 MDR cells viability, CellTiter-Glo, 72 h; activity change, negative = cytotoxicity: at 46.1 µM (top of the series)
Outline: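 Following 72 h at 37 degrees C with compound, KB-V1 cell viability was read by CellTiter-Glo luminescence, medium being phenol-red-free DMEM plus 10% FBS; concentration-response parameters came from normalized, curve-fitted qHTS data.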
With O=C(N/N=C/c1ccc(OC(=O)c2ccco2)cc1)c1ccncc1 the Potency was inconclusive: 18.4 µM [rising, single point]. For CCOC(=O)CNC(=O)C(CC(N)=O)NC(=O)OC(C)(C)C (configuration not stated), the “activity change, negative = cytotoxicity” value was inactive: 1.37%. With O=C(CC1CCCCC1)OCn1nnc2ccccc2c1=O the Potency was inconclusive: 10.3 µM [rising, partial curve, poor fit]. In the case of CCCCn1c(=O)nc2n(-c3ccccc3)c3ccccc3cc-2c1=O, the Potency is reported as active: 10.3 µM. In the case of Cc1ccc2[nH]c(CSc3nnc(NC(=O)COc4ccccc4C)s3)cc(=O)c2c1, the “activity change, negative = cytotoxicity” value is reported as inactive: 0%. With O=C(CSc1ccc(F)cc1)Nc1nnc(-c2ccco2)o1 the “activity change, negative = cytotoxicity” value was inactive: -5.88%. With CN(C)CCCN(C(=O)c1ccc(S(=O)(=O)N2CCCCCC2)cc1)c1nc2cc3c(cc2s1)OCO3 the “activity change, negative = cytotoxicity” value was inactive: 18.1%. In the case of O=C(CCC1CCCN(C(=O)CC2=CCCCC2)C1)N1CCN(c2ccccn2)CC1 (configuration not stated), the Potency is reported as inconclusive: 7.31 µM [cytotoxic, partial curve]. With CCOC(=O)/C(C#N)=C/c1cc(C)n(-c2ccccc2)c1C the Potency was active: 9.2 µM. In the case of O=C(c1ccc(S(=O)(=O)N2CCOCC2)cc1)N1CCN(c2ccc(F)cc2)CC1, the “activity change, negative = cytotoxicity” value is reported as inactive: 4.28%. In the case of COc1ccc2c(c1)c(C(C)=O)c(C)n2CCc1ccc(OC)c(OC)c1, the Potency is reported as inconclusive: 13 µM [cytotoxic, partial curve, poor fit]. In the case of Cc1cnc(NS(=O)(=O)c2ccccc2)c(Br)c1, the “activity change, negative = cytotoxicity” value is reported as inactive: 13.9%. With COc1cc(C(=O)NCC2CCCO2)ccc1OCc1ccc(Cl)cc1Cl (configuration not stated) the Potency was inconclusive: 32.6 µM [cytotoxic, single point]. With CCCCn1c(CNC(=O)c2cccs2)nc2ccccc21 the Potency was inconclusive: 23.1 µM [cytotoxic, single point]. In the case of CC(=O)N1N=C(c2cccs2)CC1c1cccc([N+](=O)[O-])c1 (configuration not stated), the Potency is reported as inconclusive: 29.1 µM [cytotoxic, single point]. With Cc1cccc(Nc2c3c(nc4ccccc24)CCC3)c1 the Potency was inconclusive: 8.2 µM [cytotoxic, partial curve]. In the case of CC(C)CC1Nc2ncnc(N3CCN(c4ccccn4)CC3)c2N(Cc2ccc(Cl)cc2)C1=O (configuration not stated), the Potency is reported as inconclusive: 29.1 µM [cytotoxic, partial curve, poor fit] and active: 23.1 µM. In the case of CC(=O)/C=C(\C)Nc1ccccc1O, the Potency is reported as inconclusive: 0.58 µM [cytotoxic, full curve, poor fit]. In the case of CC(C)(C)c1ccc(OCC(=O)Nc2ccc(C(=O)Nc3ccccc3C(=O)O)cc2)cc1, the Potency is reported as inconclusive: 29.1 µM [cytotoxic, single point]. With C[C@@H]1[C@H](c2ccccc2)OCCS(=O)(=O)N1Cc1cccc(C(F)(F)F)c1 the Potency was inconclusive: 20.6 µM [cytotoxic, single point]. With O=S(=O)(c1ccccc1)N1N=C(c2cccs2)CC1c1ccc(Br)cc1 (configuration not stated) the Potency was inconclusive: 18.4 µM [cytotoxic, partial curve, poor fit]. With CCN1C(=O)C(CC(=O)Nc2ccc(OC)cc2)N(CCc2ccccc2)C1=S (configuration not stated) the Potency was active: 20.6 µM. In the case of COc1cccc(C(=O)N2CC(=O)Nc3ccc(C)cc3C2c2ccc(F)cc2)c1OC (configuration not stated), the “activity change, negative = cytotoxicity” value is reported as inactive: -22.6%. In the case of CCCN(CCC)CCCNC(=O)c1cc2c(=O)n(CC)c3ccccc3c2s1, the Potency is reported as inconclusive: 7.31 µM [cytotoxic, full curve, poor fit]. In the case of COc1cc(OC)c(S(=O)(=O)Nc2ccc(C(=O)O)cc2)cc1S(=O)(=O)Nc1ccc(C(=O)O)cc1, the Potency is reported as inconclusive: 29.1 µM [rising, single point]. In the case of NC(=O)c1nc2c([nH]c1=O)CCCC2, the “activity change, negative = cytotoxicity” value is reported as inactive: 13.2%. In the case of O=C(O)/C=C/C(=O)N1CCN(C(=O)/C=C/C(=O)O)CC1, the Potency is reported as inconclusive: 29.1 µM [rising, single point]. For Cc1cc(N/N=C/c2ccc(O)cc2O)nc(-n2nc(C)cc2C)n1, the Potency was inconclusive: 0.206 µM [cytotoxic, full curve, poor fit]. For Nc1ccccc1C(=O)NC(=O)Nc1ccc(Oc2ncc(Br)cn2)c(Cl)c1, the Potency was active: 0.13 µM. With COc1cccc(C2CC(c3cccs3)=NN2C(=O)CSc2nc3c(cnn3-c3ccc(F)cc3)c(=O)[nH]2)c1OC (configuration not stated) the Potency was inconclusive: 16.4 µM [cytotoxic, single point]. With O=C(CSc1nnnn1C1CC2CCC1C2)Nc1ccnc2ccccc12 (configuration not stated) the Potency was inconclusive: 2.91 µM [cytotoxic, partial curve, poor fit]. With COc1ccc(C(=O)CSc2nnc(-c3ccco3)n2C)cc1 the “activity change, negative = cytotoxicity” value was inactive: -4.15%. For CCOC(=O)N1CCN(C(=O)c2ccc3nc(N4CCC(C)CC4)sc3c2)CC1, the Potency was inconclusive: 13 µM [cytotoxic, partial curve]. For CCOc1ccc(S(=O)(=O)NCCC(=O)Nc2cccc(C(=O)OC)c2)cc1, the Potency was inconclusive: 18.4 µM [cytotoxic, single point]. For CCc1nc(C)c(C(=O)N2CCCC(C(=O)Nc3cccc(-c4cccc(C)c4)c3)C2)o1 (configuration not stated), the Potency was inconclusive: 0.0058 µM [cytotoxic, full curve, poor fit]. With Cc1ccc2oc(=O)c(-c3nc4ccc(C)cc4[nH]3)cc2c1 the “activity change, negative = cytotoxicity” value was inactive: -30.2%. With CNc1snc(C)c1C(=O)OC(C)C(=O)Nc1cccc(C)c1 (configuration not stated) the Potency was inconclusive: 23.1 µM [cytotoxic, single point]. For COc1ccc(NC(=O)C[C@H]2C(=O)N(c3ccc(OC)cc3)C[C@@H]2CSC)cc1, the Potency was inconclusive: 32.6 µM [rising, partial curve, poor fit]. With O=C1COc2ccc(C(=O)COC(=O)COc3ccccc3[N+](=O)[O-])cc2N1 the Potency was inconclusive: 16.4 µM [rising, single point]. With CC(=O)c1ccccc1OCCOCCOCCOc1ccccc1C(C)=O the Potency was inconclusive: 7.31 µM [cytotoxic, partial curve]. With O=C(CN1CCN(c2ncccn2)CC1)N1CCCc2c1c(=O)oc1ccc(O)cc21 the Potency was inconclusive: 20.6 µM [rising, single point]. With O=C1Nc2ccccc2N(O)N1c1ccc(Cl)cc1 the “activity change, negative = cytotoxicity” value was inactive: 1.79%. In the case of COc1ccc(CNC(=O)CCCCCn2c(SCC#N)nc3cc4c(cc3c2=O)OCO4)cc1, the Potency is reported as inconclusive: 20.6 µM [cytotoxic, single point]. For O=C(Nc1ccc(Oc2ccccc2)cc1)c1cnc2n(c1=O)CCS2, the Potency was inconclusive: 29.1 µM [cytotoxic, single point]. In the case of CC1CCCCN1S(=O)(=O)c1ccc(F)c(C(=O)Nc2ccccc2C(F)(F)F)c1 (configuration not stated), the “activity change, negative = cytotoxicity” value is reported as inactive: -13.5%. For CCOC(=O)C1CCN(c2cc3c(cc2NC(=O)c2ccc(OC)c(OC)c2)n(C)c(=O)n3C)CC1, the Potency was inconclusive: 29.1 µM [cytotoxic, single point]. For CCCOc1ccc(-c2nc(OC)c3ccccc3n2)cc1, the Potency was inconclusive: 23.1 µM [cytotoxic, single point]. With COc1ccc(C)c2sc(N(CCN(C)C)C(=O)/C=C/c3cccs3)nc12 the Potency was inconclusive: 16.4 µM [cytotoxic, single point]. For CCOc1cnn(Cc2ccccc2)c(=O)c1SCc1ccccc1, the Potency was inconclusive: 16.4 µM [cytotoxic, single point]. With Cc1ccc(/C=C2\SC(=S)N(CCCC(=O)Nc3ccccc3C(=O)O)C2=O)cc1 the Potency was inconclusive: 29.1 µM [rising, single point]. For Cc1c(N/C(=N/S(=O)(=O)c2ccc(F)cc2)c2ccccc2)c(=O)n(-c2ccccc2)n1C, the Potency was inconclusive: 23.1 µM [rising, partial curve, poor fit]. For COc1ccc2cc3cc(C(=O)Nc4ccccc4N4CCN(C)CC4)oc3nc2c1, the Potency was active: 11.6 µM. With COC(=O)c1ccc(C(=O)OC)c(NC(=S)N2CCCCC2)c1 the “activity change, negative = cytotoxicity” value was inactive: -24.1%. In the case of CCn1c(SCc2ccc(OC)c(F)c2)nc2ccccc2c1=O, the Potency is reported as inconclusive: 2.91 µM [rising, partial curve, poor fit]. For COc1ccc(NC(=S)NCCCN2CCCC2)cc1, the Potency was inconclusive: 32.6 µM [rising, partial curve, poor fit]. In the case of Nc1ncnc2c1ncn2[C@@H]1O[C@H](C(=O)N[C@H]2c3ccccc3C[C@H]2O)[C@@H](O)[C@H]1O, the “activity change, negative = cytotoxicity” value is reported as inactive: -8.99%. For CCOC(=O)c1[nH]c(C)c(C(=O)OCCOc2cccc(C)c2)c1C, the Potency was inconclusive: 7.31 µM [cytotoxic, partial curve]. In the case of COc1ccc(CNC(=O)C2Cc3c(-c4ccccc4Oc4ccccc4)ccnc3O2)cc1OC (configuration not stated), the Potency is reported as active: 14.6 µM. In the case of COc1ccc(CN2C[C@@H](CO)O[C@@H](n3cnc4c(N5CCN(c6ccccc6)CC5)ncnc43)C2)cc1, the “activity change, negative = cytotoxicity” value is reported as inactive: -3.93%. For Clc1nnc(N/N=C/c2ccccc2)c2ccccc12, the Potency was inconclusive: 18.4 µM [cytotoxic, partial curve]. For COc1ccc(S(=O)(=O)N2CCN(Cc3nc4ccc(C)cc4o3)CC2)cc1OC, the “activity change, negative = cytotoxicity” value was inactive: -7.11%. With Cc1ccc(-c2csc(NC(=O)/C=C/c3cccs3)n2)cc1C the Potency was active: 9.2 µM. In the case of O=C(CSc1nc2ccccc2o1)N/N=C/c1ccco1, the Potency is reported as inconclusive: 14.6 µM [rising, partial curve, poor fit]. With O=S(=O)(c1ccccc1)N1CCC(Oc2ccc(-n3cnnn3)cc2)CC1 the Potency was inconclusive: 23.1 µM [cytotoxic, partial curve, poor fit]. In the case of Cc1ccc(CN2C(=O)C(C)Sc3ccc(C#N)cc32)cc1 (configuration not stated), the “activity change, negative = cytotoxicity” value is reported as inactive: 3.08%. For Cc1cc(=O)n(Cc2cccc(Br)c2)c2c1c(C)nn2-c1ccccc1, the Potency was inconclusive: 14.6 µM [rising, partial curve]. For c1coc(CNc2c3c(nc4ncnn24)CCC3)c1, the Potency was inconclusive: 18.4 µM [cytotoxic, partial curve].
